Source: patent EP2818471A1, “Nitrogen bicyclic compounds as inhibitors for Scyl1 and Grk5” (Max-Planck-Gesellschaft zur Förderung der Wissenschaften …, priority 2013, dated 2014)
Some of these results come from one statement about several compounds together.

Test system: C2C12
Assay: MTT cytotoxicity assay (cell viability and proliferation)
Assay type: cell-based, mouse
Details: C2C12, 72 h treatment

## CC(=O)Nc1cccc(-c2ccc3ncc(-c4cccc(NC(C)=O)c4)n3n2)c1 [compound 12, N-[3-[3-(3-acetamidophenyl)imidazo[1,2-b]pyridazin-6-yl]phenyl]acetamide]
  proliferation and viability: less toxicity at a 2 µM treatment
